The results in this text go back to paper PMC10511752, “Natural product-inspired synthesis of coumarin–chalcone hybrids as potential anti-breast cancer agents” (Frontiers in Pharmacology, 2023).

For this assay, the system named is MDA-MB-231 (breast cancer) cells. Nature of the assay: MTT cell proliferation assay, MDA-MB-231. The class given is cell-based. Conditions: Homo sapiens, MDA-MB-231 (ER -ve), 48 h, read-out: IC50 values (mean ± SEM) MDA-MB-231. As to the method: We conducted an in vitro MTT assay to evaluate the anti-cancer activity of the synthesized neo-tanshinlactone–chalcone hybrid compounds, 26–37, against four human cancer cell lines, namely, MCF-7 (breast cancer), MDA-MB-231 (breast cancer), Ishikawa (endometrial cancer), and HeLa (cervical cancer). The toxicity of the hybrid molecules on the normal human embryonic kidney cell line HEK-293 was also evaluated.
MCF-7, MDA-MB231, and HEK293 cell lines were purchased from ATCC (Manassas, VA, United States). Ishikawa cell lines were obtained from the European Collection of Cell Cultures. They were maintained in Dulbecco’s modified Eagle medium (DMEM) supplemented with 10% fetal bovine serum (FBS). Cells were cultured at 37°C and 5% CO2. Before the experiments, cells were cultured in phenol red-free DMEM supplemented with 10% charcoal stripped fetal bovine serum.
The synthesized hybrid compounds were tested for their anti-cancer activity using the MTT reduction assay on 2.5 × 10^3 cells per well that were seeded in 100 µL DMEM supplemented with 10% FBS in each well of 96-well microculture plates. After seeding, the cells were incubated for 24 h at 37°C in a CO2 incubator. […] The absorbance was then recorded at a wavelength of 540 nm ([Saquib et al., 2021]; [Gupta et al., 2022]; [Iqbal et al., 2023])

With `CC/C(=C(\c1ccccc1)c1ccc(OCCN(C)C)cc1)c1ccccc1` [TAM, tamoxifen, reference compound], the IC50 is 15.5 ± 2.64 µM.
